{"source": "PubChem BioAssay AID1347131", "about": "(National Center for Advancing Translational Sciences (NCATS), 2019)", "note": "Among all 410,000 compounds or so, about 2,000 (0.49%) were called active. The shares of active, inactive and inconclusive entries below differ from those in the screen. The call rests on the fitted dose curve; tested in HEK293 reporter line. Where the call is inconclusive, the potency comes from a doubtful curve fit. Potency means the concentration at half of the fitted maximal effect."}
{"assay": "qHTS Assay for Foot and Mouth Disease Virus Antivirals: Primary Screen against the MLPCN compound library; further: nearly all actives have a fitted effect of over 55% in size", "conditions": "FMDV antiviral cell-based qHTS; activity, negative = inhibition: at 57.9 µM (top of the series)"}
{"smiles": "CCCS(=O)(=O)c1ncc(Cl)c(C(=O)N(Cc2ccccc2)Cc2ccco2)n1", "Potency": "inconclusive: 15.8 µM [inhibitor, partial curve, poor fit]"}
{"smiles": "Cc1ccccc1C(=O)N1CCC(C(=O)Nc2cc(C(F)(F)F)ccc2N2CCCC2)CC1", "activity, negative = inhibition": "inactive: -33.6%"}
{"smiles": "O=C(NC(n1ccc(=O)[nH]c1=O)C(Cl)(Cl)Cl)C12CC3CC(CC(C3)C1)C2", "note": "(stereo unspecified)", "Potency": "inconclusive: 20 µM [inhibitor, partial curve, poor fit]"}
{"smiles": "CC(=O)NCc1ccc(C(=O)CCl)s1", "Potency": "inconclusive: 28.2 µM [inhibitor, partial curve, poor fit]"}
{"smiles": "CCCN1C(C)C(C(=O)OCC)=CN(Cc2cccc(I)c2)S1(=O)=O", "note": "(stereo unspecified)", "Potency": "inconclusive: 3.98 µM [inhibitor, partial curve, poor fit]"}
{"smiles": "COc1ccccc1Nc1nc(-c2c(C)nc3ncccn23)cs1", "Potency": "inconclusive: 14.1 µM [inhibitor, partial curve, poor fit]"}
{"smiles": "Cc1cc(-c2ccccc2)cc(-c2ccccc2)[n+]1CCc1ccccc1", "Potency": "inconclusive: 20 µM [inhibitor, partial curve, poor fit]"}
{"smiles": "Cn1c(N)c(C(=O)COC(=O)/C=C/c2ccc(Cl)cc2Cl)c(=O)n(C)c1=O", "Potency": "inconclusive: 39.8 µM [inhibitor, partial curve, poor fit]"}
{"smiles": "O=C(OC12CC3CC(CC(C3)C1)C2)c1ccc(NCc2cc(O)ccc2O)cc1", "Potency": "inconclusive: 12.6 µM [inhibitor, partial curve, poor fit]"}
{"smiles": "COc1cccc(CNc2nc(NCc3ccccc3OC)nc3ccsc23)c1", "Potency": "inconclusive: 25.1 µM [inhibitor, partial curve, poor fit]"}
{"smiles": "O=C(Nc1cccc(O)c1)c1cc(-c2ccccc2Cl)on1", "Potency": "inconclusive: 11.2 µM [inhibitor, partial curve, poor fit]"}
{"smiles": "Cc1cc(C(=O)C(=O)N(C)C)c(C)n1-c1ccc([N+](=O)[O-])cc1", "activity, negative = inhibition": "inactive: -31.5%"}
{"smiles": "O=C(O)c1ccc(-c2noc(-c3ccc(F)cc3)n2)cc1", "Potency": "inconclusive: 15.8 µM [inhibitor, single point]"}
{"smiles": "CN(C)c1ccc(N=Nc2ccc3ncccc3c2)cc1", "Potency": "active: 20 µM"}
{"smiles": "COc1ccc(CCn2c(O)c(C=Nc3ccc(F)cc3)c(=O)[nH]c2=O)cc1OC", "Potency": "inconclusive: 31.6 µM [inhibitor, partial curve, poor fit]"}
{"smiles": "C=C1C(=O)[C@]23C[C@H]1CCC2[C@]1(C)CCC[C@@](C)(C(=O)O)C1C[C@@H]3O", "note": "(stereo partly specified)", "Potency": "inconclusive: 25.1 µM [inhibitor, partial curve, poor fit]"}
{"smiles": "CN(Cc1ccc(Cl)c(Cl)c1)C(c1cc2ccccc2o1)c1nnnn1C(C)(C)C", "note": "(stereo unspecified)", "Potency": "inconclusive: 22.4 µM [inhibitor, partial curve, poor fit]"}
{"smiles": "Cc1cccc(N2C(N)=C(C#N)C(C#N)(C#N)C2c2ccccc2)c1", "note": "(stereo unspecified)", "Potency": "inconclusive: 39.8 µM [inhibitor, partial curve, poor fit]"}
{"smiles": "CCOc1cc(NC(=S)NCC2CCCO2)c(OCC)cc1NC(=O)c1cccc(C)c1", "note": "(stereo unspecified)", "Potency": "inconclusive: 3.16 µM [inhibitor, partial curve, poor fit]"}
{"smiles": "CCN(CC)c1ccc(C(=C2C=CC(=[N+](CC)CC)C=C2)c2ccc(N(CC)CC)cc2)cc1", "Potency": "inconclusive: 8.91 µM [inhibitor, partial curve, poor fit]"}
{"smiles": "CC(C)OC(=O)c1ccc(NCc2cc(O)ccc2O)cc1", "Potency": "inconclusive: 6.31 µM [inhibitor, full curve, poor fit]"}
{"smiles": "Cc1c([N+](=O)[O-])cnc(Sc2ccccc2)c1[N+](=O)[O-]", "Potency": "inconclusive: 22.4 µM [inhibitor, partial curve, poor fit]"}
{"smiles": "O=C(/C=C/Nc1ccccc1)c1ccccc1", "Potency": "active: 7.94 µM"}
{"smiles": "c1cn2c(NC3CCCCC3)c(-c3ccc(SC4CCCCC4)cc3)nc2cn1", "activity, negative = inhibition": "inconclusive: -31.3% [inhibitor]"}
{"smiles": "COc1ccccc1C(=O)Nc1ccc(-c2cc(C(F)(F)F)nn2-c2ccccc2)cc1", "activity, negative = inhibition": "inactive: -36.9%"}
{"smiles": "COc1ccc(-c2cc(C3CCN(c4cc(Cl)nc(N)n4)CC3)[nH]n2)cc1", "Potency": "inconclusive: 22.4 µM [inhibitor, partial curve, poor fit]"}
{"smiles": "Cc1ccc(-c2nc(NC(=O)c3nn(C)cc3[N+](=O)[O-])sc2C)cc1", "Potency": "inconclusive: 11.2 µM [inhibitor, partial curve, poor fit]"}
{"smiles": "Cc1nn(C)c(C)c1/C=N/N=C1\\CCC2C3CCc4cc(O)ccc4C3CCC12C", "note": "(stereo unspecified)", "Potency": "inconclusive: 22.4 µM [inhibitor, partial curve, poor fit]"}
{"smiles": "COc1ccc(-c2cccc([C@H]3[C@@H]4C=CC[C@@H](C)[C@@H]4C(=O)N3Cc3ccccc3)c2)cc1", "activity, negative = inhibition": "inactive: -37.7%"}
{"smiles": "CCN1CCc2nc3sc(C(=O)Nc4ccccc4OC(F)(F)F)c(N)c3cc2C1", "Potency": "inconclusive: 3.55 µM [inhibitor, partial curve, poor fit]"}
{"smiles": "COc1cc(/C=N/NS(=O)(=O)c2ccc3ccccc3c2)ccc1OCc1ccc(C(=O)O)cc1", "Potency": "inconclusive: 15.8 µM [inhibitor, single point]"}
{"smiles": "COc1ccc2c(c1)/C(=C\\c1cccc(/C=C3/C(=O)Nc4ccc(OC)cc43)n1)C(=O)N2", "Potency": "inconclusive: 7.08 µM [inhibitor, full curve, poor fit]"}
{"smiles": "Cc1nn(-c2nc3ccccc3s2)c(C)c1Oc1ccccc1O", "Potency": "inconclusive: 25.1 µM [inhibitor, single point]"}
{"smiles": "COc1ccc(Cc2nc3ccccc3c(=O)n2N)cc1OC", "Potency": "inconclusive: 8.91 µM [inhibitor, partial curve, poor fit]"}
{"smiles": "CN(C)n1cccc1/C=C(\\C#N)S(=O)(=O)c1ccc(Cl)cc1", "Potency": "inconclusive: 15.8 µM [inhibitor, partial curve]"}
{"smiles": "Cc1ccnc(Nc2nc3ccccc3o2)n1", "Potency": "inconclusive: 20 µM [inhibitor, single point]"}
{"smiles": "C[C@H]1CCC[C@]2(C)C[C@H]3OC(=O)C(CN4CCCCCC4)[C@H]3C=C12", "note": "(stereo partly specified)", "Potency": "inconclusive: 22.4 µM [inhibitor, partial curve, poor fit]"}
{"smiles": "COc1cc(NC(=O)c2cnc(N)o2)cc(C(=O)Nc2cccc(C(F)(F)F)c2)c1", "Potency": "inconclusive: 17.8 µM [inhibitor, partial curve, poor fit]"}
{"smiles": "Cc1c(O)c2c3c(cccc3c1O)C(=O)N(c1ccccc1)C2=O", "Potency": "inconclusive: 22.4 µM [inhibitor, partial curve, poor fit]"}
{"smiles": "O=C1c2ccccc2C(=O)N1CCCCc1cn(C[C@H]2CC[C@@H]([C@@H]3CC[C@H](Cn4cc(CCCCN5C(=O)c6ccccc6C5=O)nn4)O3)O2)nn1", "Potency": "inconclusive: 25.1 µM [inhibitor, partial curve, poor fit]"}
{"smiles": "O=C(NCCN1CCC(n2c(=O)[nH]c3ccccc32)CC1)c1ccc(Cl)cc1", "activity, negative = inhibition": "inactive: -37.5%"}
{"smiles": "Cn1c(=O)[nH]c(=O)c2c1nc(Br)n2CCCCSc1nc2ccccc2o1", "Potency": "inconclusive: 35.5 µM [inhibitor, partial curve, poor fit]"}
{"smiles": "CN(C)c1ccc(C(=C2C=CC(=[N+](C)C)C=C2)c2ccc(N(C)C)cc2)cc1", "Potency": "inconclusive: 17.8 µM [inhibitor, partial curve, poor fit]"}
{"smiles": "COc1ccc(-c2n(CC(=O)OC3CC(C)CCC3C(C)C)c3ccccc3[n+]2C)cc1", "note": "(stereo unspecified)", "Potency": "inconclusive: 5.01 µM [inhibitor, partial curve, poor fit]"}
{"smiles": "O=C(NCc1ccco1)c1ccc(S(=O)(=O)N2CCCc3ccccc32)cc1", "Potency": "inconclusive: 28.2 µM [inhibitor, partial curve, poor fit]"}
{"smiles": "O=C(COc1ccc(Br)cc1)N1CCN(c2ccccc2)CC1", "activity, negative = inhibition": "inactive: -33.6%"}
{"smiles": "CCOc1ccc2nc(SCc3ccc(CC(=O)O)cc3)c(C#N)cc2c1", "Potency": "inconclusive: 8.91 µM [inhibitor, partial curve, poor fit]"}
{"smiles": "Cc1ccc(NC(=O)COc2cccnc2[N+](=O)[O-])cc1S(=O)(=O)N1CCCCC1", "Potency": "inconclusive: 39.8 µM [inhibitor, partial curve, poor fit]"}
{"smiles": "COc1cc(N2CCC(O)CC2)ccc1Nc1nnc(Cl)c(Nc2ccccc2S(C)(=O)=O)n1", "Potency": "inconclusive: 20 µM [inhibitor, partial curve, poor fit]"}
{"smiles": "Cc1cc(NC(=O)c2ccc3nccnc3c2)ccc1Br", "Potency": "inconclusive: 17.8 µM [inhibitor, single point]"}
{"smiles": "Cc1cc2c(n1-c1ccc(Br)cc1)CC(C)(C)CC2=O", "Potency": "inconclusive: 39.8 µM [inhibitor, partial curve, poor fit]"}
{"smiles": "C=CCNc1nc(-c2cc3ccccc3o2)cs1", "Potency": "inconclusive: 12.6 µM [inhibitor, partial curve, poor fit]"}
{"smiles": "CCc1ccc(-n2c(=O)c3ccc(C(=O)NCCc4ccccc4)cc3n(CC(N)=O)c2=O)cc1", "Potency": "inconclusive: 14.1 µM [inhibitor, partial curve, poor fit]"}
{"smiles": "O=C(Nc1cc(F)ccc1F)N1CCN(c2ccnc3cc(Cl)ccc23)CC1", "Potency": "inconclusive: 31.6 µM [inhibitor, partial curve, poor fit]"}
{"smiles": "CC[C@@H](C(=O)[C@@H](C)[C@@H](O)[C@H](C)CCc1ccc(C)c(O)c1C(=O)O)[C@H]1O[C@](CC)([C@H]2CC[C@](O)(CC)[C@H](C)O2)C[C@@H]1C", "Potency": "inconclusive: 20 µM [inhibitor, partial curve, poor fit]"}
{"smiles": "CC(C)(C)OC(=O)NCCCC[C@@H](C(=O)NCCCCCCCCCCC(=O)N1CCN(C(=O)OC(C)(C)C)CC1)n1cc(CCO)nn1", "Potency": "inconclusive: 14.1 µM [inhibitor, partial curve, poor fit]"}
